Measured values: PubChem BioAssay (NCATS)
Where “and” joins values, the source holds several entries; their conditions need not be identical. Equal entries are not always repeated. This list was built around the results that the source calls inconclusive (neither active nor inactive); the mix of calls is not that of the screen. For part of these data: Where the call is inconclusive, the potency comes from a doubtful curve fit. Calls of active or inactive are those of the source. The call rests on the fitted dose curve; in most records, active means well fitted curve in the direction sought with a large enough effect; inconclusive means small, poorly fitted or top-dose-only effect, or another doubt; inactive means no such curve, though single readings can be large; an effect the other way counts as inactive or inconclusive.

Key:
[1] = Cell Proliferation Assay against the TMD8 Cell Line (Caspase readout at 16 hrs) (AID 651712); conditions: TMD8 lymphoma cells, caspase activation luminescence; caspase activation: at 46.1 µM (top of the series); further: potency means the concentration at half of the fitted maximal effect
How it was run: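 16 h, 37 °C, TMD8 (500 cells/well), RPMI/5% FBS no phenol red; Caspase-Glo 3/7, 15 min RT, luminescence; %act: DMSO 0, bortezomib 9.2 uM final 100.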

[2] = Cell Proliferation Assay against the TMD8 Cell Line (Caspase readout at 8 hrs) (AID 651713); conditions: TMD8 lymphoma cells, caspase activation luminescence; caspase activation: at 46.1 µM (top of the series); further: potency means the concentration at half of the fitted maximal effect
How it was run: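 Apoptosis readout: caspase 3/7 luminescence (Caspase-Glo), 15 min RT. Cells: TMD8, 500/well, RPMI + 5% FBS, no phenol red. Exposure 8 h, 37C. % activity vs DMSO = 0, bortezomib 9.2 uM final = 100.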

[3] = Identifying Small Molecule Inhibitors of Pancreatic Cancer Stem Cells (A2780, Spheroid) (AID 1259357); conditions: Potency: A2780 spheroid viability; series mostly up to 46.1 µM; further: potency means the concentration at half of the fitted maximal effect;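 further: spheroids pre-formed over 14 days in stem cell medium on hydrogel; compound exposure lasted 48 h before the ATP luminescence read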
How it was run: (§1)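 Viability is scored by CellTiter-Glo luminescence 48 h after dosing, expressed as percent activity against vehicle and no-cell references. Spheroid formats rely on cells cultured 14 days in stem cell media beforehand.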

[4] = Identifying Small Molecule Inhibitors of Pancreatic Cancer Stem Cells (Panc1, Spheroid) (AID 1259359); conditions: Panc1 spheroid cancer stem cell viability; viability, % of control: at 46.1 µM (top of the series) unless noted;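 further: potency means the concentration at half of the fitted maximal effect; compound exposure lasted 48 h before reading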
How it was run: (§2)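 Adherent (2D) versus sphere (3D) formats; spheres generated 14 d in SCM beforehand. Compound transferred by pin tool after 4 h, 48 h incubation, CellTiter-Glo endpoint.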

[5] = Identifying Small Molecule Inhibitors of Pancreatic Cancer Stem Cells (SN12C, Spheroid) (AID 1259360); conditions: Potency: SN12C spheroid viability; further: potency means the concentration at half of the fitted maximal effect
How it was run: as §1

[6] = Identifying Small Molecule Inhibitors of Pancreatic Cancer Stem Cells (A278, Adherent) (AID 1259361); further: nearly all actives have a fitted effect of over 35% in size
How it was run: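 After a 4 h attachment period, compounds were pinned into wells and cultures held 48 h under standard incubator conditions. Viability was then measured as CellTiter-Glo luminescence following 10 min at room temperature.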

[7] = Identifying Small Molecule Inhibitors of Pancreatic Cancer Stem Cells (Panc1, Adherent) (AID 1259362); conditions: Potency: viability unless noted; viability, % of control: at 46.1 µM (top of the series) unless noted; further: potency means the concentration at half of the fitted maximal effect
How it was run: as §2

[8] = P-glycoprotein substrates identified in KB-8-5-11 adenocarcinoma cell line, qHTS therapeutic library screen (AID 1346987); further: potency means the concentration at half of the fitted maximal effect; nearly all actives have a fitted effect of over 65% in size
How it was run: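 In this qHTS, P-gp-rich KB-8-5-11 cells received library compounds across a concentration range. Viability was quantified by luminescence after 72 h at 37 degree C.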

[9] = qHTS of pediatric cancer cell lines to identify multiple opportunities for drug repurposing: Primary screen for BT-12 cells (AID 1347101); further: potency means the concentration at half of the fitted maximal effect; nearly all actives have a fitted effect of over 25% in size
How it was run: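 Cells (500-1,000/well) rested 5 h, then received compounds for 48 h; metabolically active cells were measured by CellTiter-Glo luminescence. Final concentrations spanned up to 46 µM (MIPE, 11-point) or 0.59 nM-46 µM (NPC, 8-point) in primary screens, 11-point in follow-ups.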

[10] = qHTS of pediatric cancer cell lines to identify multiple opportunities for drug repurposing: Primary screen for Rh18 cells (AID 1347102); further: potency means the concentration at half of the fitted maximal effect; nearly all actives have a fitted effect of over 65% in size
How it was run: (§3)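 Cells (500-1,000/well) in growth media were settled 5 h at 37 degrees C, then given compounds for 48 h. Viability was read as CellTiter-Glo luminescence. Primary runs used MIPE at 11 points (0.78 nM-46 µM) and NPC at 8 points (0.59 nM-46 µM); follow-ups used 11 points.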

[11] = qHTS of pediatric cancer cell lines to identify multiple opportunities for drug repurposing: Primary screen for Rh30 cells (AID 1347107); further: potency means the concentration at half of the fitted maximal effect; nearly all actives have a fitted effect of over 75% in size
How it was run: as §3

[12] = qHTS of pediatric cancer cell lines to identify multiple opportunities for drug repurposing: Primary screen for Rh41 cells (AID 1347108); further: potency means the concentration at half of the fitted maximal effect; nearly all actives have a fitted effect of over 70% in size
How it was run: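 500-1,000 cells/well; 5 h pre-incubation 37 °C/5% CO2; compound pinned; 48 h; CellTiter-Glo, 15 min RT; luminescence. MIPE 11-pt from 0.78 nM, NPC 8-pt from 0.59 nM final. Bortezomib 2.3 µM final as positive control.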

[13] = Quantitative High-Throughput drug screen in 47 multiple myeloma cell lines against the NCATS MIPE library collection: JIM1_ECACC cell viability assay (AID 1918964; further: potency means the concentration at half of the fitted maximal effect)
How it was run: (§4)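 CellTiter-Glo luminescence (ATP) after 48 h compound exposure, 37C/5% CO2; 500 cells/well; MIPE 4.0 approved/investigational drugs pinned in; DMSO = 100%, media only = 0% viability.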

[14] = Quantitative High-Throughput drug screen in 47 multiple myeloma cell lines against the NCATS MIPE library collection: KMS20_JCRB cell viability assay (AID 1918973); conditions: CellTiter-Glo ATP, 48 h; series mostly up to 45.8 µM; further: potency means the concentration at half of the fitted maximal effect; nearly all actives have a fitted effect of over 45% in size
How it was run: as §4

[15] = Quantitative High-Throughput drug screen in 47 multiple myeloma cell lines against the NCATS MIPE library collection: KMS21BM_JCRB cell viability assay (AID 1918974); conditions: ATP luminescence, 48 h; viability: at 45.8 µM (top of the series); further: potency means the concentration at half of the fitted maximal effect
How it was run: as §4

[16] = Quantitative High-Throughput drug screen in 47 multiple myeloma cell lines against the NCATS MIPE library collection: MOLP8_DSMZ cell viability assay (AID 1918977); conditions: MOLP8 myeloma viability, CellTiter-Glo ATP luminescence, 48 h; viability (% of control): at 45.8 µM (top of the series); further: potency means the concentration at half of the fitted maximal effect; nearly all actives have a fitted effect of over 45% in size
How it was run: (§5)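 Readout: median RLU from CellTiter-Glo after 5 min at room temperature. Preceding step was 48 h drug treatment of 500 cells/well at 37 °C, 5% CO2, with DMSO-only and media-only control wells.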

[17] = Quantitative High-Throughput drug screen in 47 multiple myeloma cell lines against the NCATS MIPE library collection: L363_DSMZ cell viability assay (AID 1918984); conditions: L363 myeloma viability, CellTiter-Glo ATP luminescence, 48 h; viability (% of control): at 45.8 µM (top of the series); further: potency means the concentration at half of the fitted maximal effect; nearly all actives have a fitted effect of over 40% in size
How it was run: as §5

[18] = tested on: CRL-7250; assay: Cytotoxic Profiling of Annotated Libraries Using Quantitative High-Throughput Screening (AID 1296008); conditions: Five cell lines viability, CellTiter-Glo ATP luminescence, 48-72 h; max response: hits give low values; further: potency means the concentration at half of the fitted maximal effect; nearly all actives have a fitted effect of over 60% in size
How it was run: (§6)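 Compounds were pin-transferred onto cells and incubated 48 or 72 hr at 37 degree Celsius, 95% humidity. CellTiter-Glo was added, plates sat 10 min at room temperature, then ATP-coupled luminescence was imaged as the viability read-out.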

[19] = Quantitative High-Throughput drug screen in 47 multiple myeloma cell lines against the NCATS MIPE library collection: LP1_DSMZ cell viability assay (AID 1918982); further: potency means the concentration at half of the fitted maximal effect; nearly all actives have a fitted effect of over 35% in size
How it was run: as §5

[20] = tested on: HEK293; assay: Cytotoxic Profiling of Annotated Libraries Using Quantitative High-Throughput Screening (AID 1296008); conditions: Five cell lines viability, CellTiter-Glo ATP luminescence, 48-72 h; max response: hits give low values; further: potency means the concentration at half of the fitted maximal effect; nearly all actives have a fitted effect of over 60% in size
How it was run: as §6

| SMILES | Potency [1] | Potency [2] | Potency [3] | Potency [4] | Potency [5] | IC50 (viability decrease) [6] | Potency [7] | Potency [8] | Potency [9] | Potency [10] | Potency [11] | Potency [12] | Potency [13] | Potency [14] | Potency [15] | Potency [16] | Potency [17] | Potency [18] | Potency [19] | Potency [20] |
| --- | --- | --- | --- | --- | --- | --- | --- | --- | --- | --- | --- | --- | --- | --- | --- | --- | --- | --- | --- | --- |
| COc1cc2nccc(Oc3ccc(NC(=O)C4(C(=O)Nc5ccc(F)cc5)CC4)cc3)c2cc1OC | active: 26.4 µM | inconclusive: 26.4 µM [activator, single point] | inconclusive: 0.0012 µM [rising, full curve, poor fit] | inconclusive: 0.0166 µM [rising, full curve, poor fit] | inconclusive: 33.2 µM [cytotoxic, single point] | inconclusive: 23.5 µM [cytotoxic, partial curve] | inconclusive: 23.5 µM [cytotoxic, partial curve, poor fit] | active: 16.6 µM and active: 9.2 µM | active: 15.3 µM | active: 10.5 µM | inconclusive: 11.8 µM [cytotoxic, partial curve] | active: 9.35 µM | inconclusive: 3.32 µM [cytotoxic, full curve, poor fit] | inconclusive: 26.4 µM [cytotoxic, single point] | inconclusive: 29.6 µM [rising, partial curve, poor fit] | active: 14.8 µM | inconclusive: 5.9 µM [cytotoxic, partial curve, poor fit] | active: 1.48 µM and active: 13 µM |  |  |
| CN(C)CCCN=c1c2ccccc2n(C)c2[nH]c(=O)n(C)c(=O)c12 | active: 20.9 µM | active: 26.4 µM | inactive | inconclusive: 29.6 µM [cytotoxic, single point] | inactive | active: 11.8 µM | inconclusive: 11.8 µM [cytotoxic, partial curve, poor fit] | inconclusive: 37.2 µM [inhibitor, partial curve, poor fit] | active: 7.69 µM | inconclusive: 16.6 µM [cytotoxic, partial curve] | inconclusive: 14.8 µM [cytotoxic, partial curve] | active: 9.35 µM | inconclusive: 11.8 µM [cytotoxic, single point] | inconclusive: 37.2 µM [cytotoxic, single point] | inconclusive: 29.6 µM [rising, partial curve, poor fit] |  | inconclusive: 6.62 µM [cytotoxic, partial curve, poor fit] |  | inconclusive: 18.7 µM [cytotoxic, partial curve] | active: 5.26 µM |
